Measured values reported in article PMC9220929.
No constants are given. Whether binding was seen depends on the method and setting. For part of these data: In cells and extracts the contact can be indirect. Some binding calls cover weakened binding; strength is not graded here. For part of these data: Tags and fused reporters may be left off the sequences shown. Values belong to the binder of their own block, whether it stands above or below them.

Protein sequences, listed by entry. Tags and fused reporters are not part of them. Lines headed by an entry give the natural chain unless they say otherwise; changes in a name come on top. Residues count along the entry.
UniProt O35867: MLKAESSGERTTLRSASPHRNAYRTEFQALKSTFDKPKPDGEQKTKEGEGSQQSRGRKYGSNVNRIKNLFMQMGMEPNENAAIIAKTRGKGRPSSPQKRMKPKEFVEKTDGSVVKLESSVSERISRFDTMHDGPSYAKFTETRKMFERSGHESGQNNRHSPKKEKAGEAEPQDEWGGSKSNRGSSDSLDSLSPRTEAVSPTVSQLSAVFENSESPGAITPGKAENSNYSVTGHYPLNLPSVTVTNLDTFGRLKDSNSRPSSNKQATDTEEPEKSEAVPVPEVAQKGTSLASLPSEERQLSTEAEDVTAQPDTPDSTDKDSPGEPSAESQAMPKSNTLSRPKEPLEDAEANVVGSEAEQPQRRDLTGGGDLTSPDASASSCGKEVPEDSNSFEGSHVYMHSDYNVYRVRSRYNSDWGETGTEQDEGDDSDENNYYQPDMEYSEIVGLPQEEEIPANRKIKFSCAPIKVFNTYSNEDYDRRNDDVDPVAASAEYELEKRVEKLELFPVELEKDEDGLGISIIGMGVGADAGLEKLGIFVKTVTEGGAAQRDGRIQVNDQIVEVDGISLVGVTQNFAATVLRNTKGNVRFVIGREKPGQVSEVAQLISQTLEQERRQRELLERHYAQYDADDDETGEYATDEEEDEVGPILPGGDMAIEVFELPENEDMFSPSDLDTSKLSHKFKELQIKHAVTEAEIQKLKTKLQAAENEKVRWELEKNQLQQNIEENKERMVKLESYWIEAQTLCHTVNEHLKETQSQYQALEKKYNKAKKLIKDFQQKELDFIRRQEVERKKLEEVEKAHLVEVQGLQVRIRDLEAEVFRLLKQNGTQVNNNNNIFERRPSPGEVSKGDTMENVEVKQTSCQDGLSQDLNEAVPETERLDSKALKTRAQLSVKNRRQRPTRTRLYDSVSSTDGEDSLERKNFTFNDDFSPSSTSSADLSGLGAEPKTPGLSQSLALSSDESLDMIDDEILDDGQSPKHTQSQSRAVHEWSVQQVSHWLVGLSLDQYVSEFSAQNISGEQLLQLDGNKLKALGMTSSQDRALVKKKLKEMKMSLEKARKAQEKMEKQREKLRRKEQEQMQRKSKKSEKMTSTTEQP
GST-Nrb331-453 (neurabin aa331-453): residues 331-453 of O35867

Experiments:
[1] = target: GST-Nrb331-453 (neurabin aa331-453) (UniProt O35867); assay: pull-down; competition pull-down: synthetic A1R peptide (0.1 ug/uL final) added to GST-Nrb331-453 with the [35S]A1R202-326 probe; read-out is the amount of probe pulled down; both purified
[2] = target: neurabin (full length), expressed in cells (UniProt O35867); assay: co-IP; intact cells expressing HA-A1R and neurabin with GFP or GFP-CT, treated with vehicle or R-PIA; neurabin detected in the IP complex with HA-A1R by Western blot
[3] = target: GST-Nrb331-453 (neurabin aa331-453) (UniProt O35867); assay: pull-down; GST-Nrb331-453 as bait, [35S]-labeled in vitro translated A1R202-326 as probe; autoradiography; BSA control or competitor peptides at 0.1 ug/uL; only the target purified

- binding [1]: binds
Binder: QKFRVTFLKIWNDHFRCQPAPPIDEDLPEERPDD (peptide, UniProt P30542 293-326) [A1R-CT peptide (aa293-326), without TAT fusion]

- binding [2]: binds
Binder: QKFRVTFLKIWNDHFRCQPAPPIDEDLPEERPDD (domain or fragment, UniProt P30542 293-326) [GFP-fused A1R-CT (GFP-A1R293-326)]

- binding [3]: binds
B1: [35S]-labeled A1R202-326 (adenosine A1 receptor aa202-326) (domain or fragment, UniProt P30542 202-326)
chain: EVFYLIRKQLNKKVSASSGDPQKYYGKELKIAKSLALILFLFALSWLPLHILNCITLFCPSCHKPSILTYIAIFLTHGNSAMNPIVYAFRIQKFRVTFLKIWNDHFRCQPAPPIDEDLPEERPDD
modifications: [35S]methionine label
